The list shows only some results of the screen, not a fair sample: it is rich in T/C values a quarter to a half above the control, in often repeated tests (any T/C) and in doses without a T/C. Other doses and runs of a compound stand elsewhere. T/C is the treated group as % of the vehicle group. Some doses have a count of surviving animals in place of a T/C: the source files T/C as zero there, which appears to mark a toxic dose or a test without result, not a measured value. Some survivor counts are full or nearly so, which does not show that the dose was tolerated: the source hardly ever lists a survival T/C far under the control, and the zero likely stands for such cases as well. Counts of survivors are from the toxicity check (mostly the fifth day) where no day follows; animals may have died later. Schedules are NCI's codes, read here as Q, the interval in days (D) or hours (H), X, the number of doses. Some schedule codes hold Z or #, which are not explained here. Some doses were run more than once; the results are listed from low to high. Where survival is the endpoint, this PubChem deposit counts one and a half times the control or more as active, and values a quarter to a half above the control carry no call in these data; other NCI protocols may use other cut-offs. Some T/C values carry the count of animals alive at the toxicity check (mostly the fifth day); without a count, all were alive then.
Tested on: L1210 leukemia ip in BDF1 mice, survival T/C
Experiment: NCI In Vivo Anticancer Drug Screen. Data for tumor model L1210 Leukemia (intraperitoneal) in B6D2F1 (BDF1) mice
Conditions: T/C endpoint: mean survival time, higher T/C = longer survival
[1] = dose: 100.0 mg/kg/injection, schedule: Q01DX009 (ip), vehicle: Klucel (hydroxypropylcellulose) (HPC)
[2] = dose: 200.0 mg/kg/injection, schedule: Q01DX009 (ip), vehicle: Klucel (hydroxypropylcellulose) (HPC)
[3] = dose: 400.0 mg/kg/injection, schedule: Q01DX009 (ip), vehicle: Klucel (hydroxypropylcellulose) (HPC)
[4] = dose: 50.0 mg/kg/injection, schedule: Q01DX009 (ip), vehicle: Klucel (hydroxypropylcellulose) (HPC)
[5] = dose: 100.0 mg/kg/injection, schedule: Q04DX003 (ip), vehicle: Klucel (hydroxypropylcellulose) (HPC)
[6] = dose: 200.0 mg/kg/injection, schedule: Q04DX003 (ip), vehicle: Klucel (hydroxypropylcellulose) (HPC)
[7] = dose: 400.0 mg/kg/injection, schedule: Q04DX003 (ip), vehicle: Klucel (hydroxypropylcellulose) (HPC)
[8] = dose: 30.0 mg/kg/injection, schedule: Q01DX009 (ip), vehicle: Klucel (hydroxypropylcellulose) (HPC)

SMILES: CCCCCCCCCCCCNC(=O)C[n+]1cccc(C(=O)N(C)C)c1
- survivor count (dose: 100.0 mg/kg/injection, schedule: Q04DX003 (ip), vehicle: saline): 3 of 6
- survivor count (dose: 200.0 mg/kg/injection, schedule: Q04DX003 (ip), vehicle: saline): 0 of 6
- survivor count (dose: 400.0 mg/kg/injection, schedule: Q04DX003 (ip), vehicle: saline): 0 of 6

SMILES: CN(C)C1CCCCC1
- survivor count [1]: 6 of 6
- survivor count [2]: 0 of 6
- survivor count [3]: 0 of 6

SMILES: CCC1CN2N=Cc3ccccc3C2=N1 (stereo not drawn)
- survivor count (dose: 40.0 mg/kg/injection, schedule: Q01DX001 (ip), vehicle: saline): 3 of 6
- survivor count (dose: 80.0 mg/kg/injection, schedule: Q01DX001 (ip), vehicle: saline): 0 of 6
- survivor count (dose: 100.0 mg/kg/injection, schedule: Q01DX001 (ip), vehicle: saline): 0 of 6
- survivor count (dose: 200.0 mg/kg/injection, schedule: Q01DX001 (ip), vehicle: saline): 0 of 6
- survivor count (dose: 400.0 mg/kg/injection, schedule: Q01DX001 (ip), vehicle: saline): 0 of 6

SMILES: COC(=O)c1cc([N+](=O)[O-])cc([N+](=O)[O-])c1Br
- survivor count [4]: 4 of 6
- survivor count [5]: 0 of 6
- survivor count [6]: 0 of 6
- survivor count [7]: 0 of 6

SMILES: NC(=O)COc1ccc(Cl)cc1Cl
- survivor count [3]: 0 of 3
- survivor count (dose: 400.0 mg/kg/injection, schedule: Q04DX002 (ip), vehicle: Klucel (hydroxypropylcellulose) (HPC)): 1 of 3

SMILES: O=C(Nc1ccc(C2=NCCCN2)cc1)Nc1ccc(C2=NCCCN2)cc1
- survivor count (dose: 5.0 mg/kg/injection, schedule: Q01DX Z (ip), vehicle: saline): 6 of 6
- survivor count (dose: 6.6 mg/kg/injection, schedule: Q01DX Z (ip), vehicle: saline): 3 of 6
- survivor count (dose: 10.0 mg/kg/injection, schedule: Q01DX Z (ip), vehicle: saline): 0 of 6
- survivor count (dose: 15.0 mg/kg/injection, schedule: Q01DX Z (ip), vehicle: saline): 0 of 6

SMILES: C=CC[N+](CC=C)(CC=C)CC[N+](CC=C)(CC=C)CC=C
- survivor count (dose: 100.0 mg/kg/injection, schedule: Q01DX009 (ip), vehicle: water): 0 of 6
- survivor count (dose: 100.0 mg/kg/injection, schedule: Q04DX003 (ip), vehicle: water): 5 of 6
- survivor count (dose: 200.0 mg/kg/injection, schedule: Q01DX009 (ip), vehicle: water): 0 of 6
- survivor count (dose: 200.0 mg/kg/injection, schedule: Q04DX003 (ip), vehicle: water): 1 of 6
- survivor count (dose: 400.0 mg/kg/injection, schedule: Q04DX003 (ip), vehicle: water): 0 of 6

SMILES: COc1cc(C=Nc2cc(Br)c(OC)c(Br)c2)ccc1N(CCCl)CCCl
- T/C (dose: 44.0 mg/kg/injection, schedule: Q01DX001 (ip), vehicle: carboxymethylcellulose (CMC)): 133 and 135 % of control
- T/C (dose: 66.0 mg/kg/injection, schedule: Q01DX001 (ip), vehicle: carboxymethylcellulose (CMC)): 128 % of control
- T/C (dose: 100.0 mg/kg/injection, schedule: Q01DX001 (ip), vehicle: carboxymethylcellulose (CMC)): 130 and 135 % of control
- survivor count (dose: 400.0 mg/kg/injection, schedule: Q01DX001 (ip), vehicle: carboxymethylcellulose (CMC)): 1 of 4

SMILES: Oc1c(Cl)cc(N=Cc2ccc(N(CCCCl)CCCCl)cc2Cl)cc1Cl
- survivor count (dose: 50.0 mg/kg/injection, schedule: Q04DX003 (ip), vehicle: Klucel (hydroxypropylcellulose) (HPC)): 6 of 6
- survivor count [5]: 6 of 6
- survivor count [6]: 6 of 6
- survivor count [7]: 6 of 6

SMILES: Cc1[nH]ccc2c(C)c3nc4ccccc4c3cc12
- T/C (dose: 10.0 mg/kg/injection, schedule: Q01DX Z (ip), vehicle: carboxymethylcellulose (CMC)): 128 and 132 % of control
- T/C (dose: 18.0 mg/kg/injection, schedule: Q01DX Z (ip), vehicle: saline): 130 % of control
- T/C (dose: 20.0 mg/kg/injection, schedule: Q01DX Z (ip), vehicle: carboxymethylcellulose (CMC)): 138 % of control
- T/C (dose: 21.0 mg/kg/injection, schedule: Q01DX Z (ip), vehicle: carboxymethylcellulose (CMC)): 135 % of control
- T/C (dose: 27.0 mg/kg/injection, schedule: Q01DX Z (ip), vehicle: saline): 143 % of control
- T/C (dose: 42.0 mg/kg/injection, schedule: Q01DX Z (ip), vehicle: carboxymethylcellulose (CMC)): 141 % of control
- T/C (dose: 45.0 mg/kg/injection, schedule: Q04DX003 (ip), vehicle: saline with Tween-80): 143 % of control
- T/C (dose: 60.0 mg/kg/injection, schedule: Q01DX Z (ip), vehicle: saline): 125 % of control
- T/C (dose: 66.0 mg/kg/injection, schedule: Q04DX003 (ip), vehicle: saline with Tween-80): 136 % of control
- T/C (dose: 84.0 mg/kg/injection, schedule: Q01DX Z (ip), vehicle: carboxymethylcellulose (CMC)): 141 % of control
- survivor count (dose: 150.0 mg/kg/injection, schedule: Q01DX Z (ip), vehicle: saline): 6 of 6
- survivor count (dose: 225.0 mg/kg/injection, schedule: Q04DX003 (ip), vehicle: saline with Tween-80): 5 of 6

SMILES: COc1cc(C=Nc2ccc(-n3ccnc3C)cc2)ccc1N(CCCl)CCCl
- T/C (dose: 3.8 mg/kg/injection, schedule: Q04DX003 (ip), vehicle: Klucel (hydroxypropylcellulose) (HPC)): 131 % of control
- T/C (dose: 4.0 mg/kg/injection, schedule: Q01DX009 (ip), vehicle: Klucel (hydroxypropylcellulose) (HPC)): 125 % of control
- T/C (dose: 5.8 mg/kg/injection, schedule: Q04DX003 (ip), vehicle: Klucel (hydroxypropylcellulose) (HPC)): 129 % of control [5 of 6 alive]
- T/C (dose: 8.8 mg/kg/injection, schedule: Q01DX009 (ip), vehicle: Klucel (hydroxypropylcellulose) (HPC)): 148 % of control
- T/C (dose: 10.0 mg/kg/injection, schedule: Q01DX009 (ip), vehicle: Klucel (hydroxypropylcellulose) (HPC)): 144 % of control
- T/C (dose: 13.3 mg/kg/injection, schedule: Q01DX009 (ip), vehicle: Klucel (hydroxypropylcellulose) (HPC)): 128 % of control [5 of 6 alive]
- T/C (dose: 13.3 mg/kg/injection, schedule: Q04DX003 (ip), vehicle: Klucel (hydroxypropylcellulose) (HPC)): 131 and 137 % of control
- survivor count (dose: 20.0 mg/kg/injection, schedule: Q01DX009 (ip), vehicle: Klucel (hydroxypropylcellulose) (HPC)): 6 of 6
- T/C (dose: 20.0 mg/kg/injection, schedule: Q04DX003 (ip), vehicle: Klucel (hydroxypropylcellulose) (HPC)): 130, 131, 135 % of control
- T/C [8]: 127 % of control
- survivor count [8]: 2 of 6
- survivor count (dose: 40.0 mg/kg/injection, schedule: Q04DX003 (ip), vehicle: Klucel (hydroxypropylcellulose) (HPC)): 3 of 6
- survivor count (dose: 45.0 mg/kg/injection, schedule: Q04DX003 (ip), vehicle: Klucel (hydroxypropylcellulose) (HPC)): 1 of 6
- survivor count (dose: 70.0 mg/kg/injection, schedule: Q04DX003 (ip), vehicle: Klucel (hydroxypropylcellulose) (HPC)): 0 of 6
- survivor count (dose: 80.0 mg/kg/injection, schedule: Q04DX003 (ip), vehicle: Klucel (hydroxypropylcellulose) (HPC)): 0 of 6
- survivor count [5]: 2 of 6
- survivor count [6]: 0 of 6
- survivor count [7]: 0 of 6

SMILES: CCC[CH2][Sn]([Cl])([CH2]Cl)[CH2]CCC
- survivor count (dose: 100.0 mg/kg/injection, schedule: Q01DX001 (ip), vehicle: saline with Tween-80): 0 of 6
- survivor count (dose: 200.0 mg/kg/injection, schedule: Q01DX001 (ip), vehicle: saline with Tween-80): 0 of 6
- survivor count (dose: 400.0 mg/kg/injection, schedule: Q01DX001 (ip), vehicle: saline with Tween-80): 0 of 6

SMILES: CCC[CH2][Sn]1([CH2]CCC)[O]C(=O)CCC(=O)[O]1
- survivor count (dose: 6.25 mg/kg/injection, schedule: Q01DX009 (ip), vehicle: Klucel (hydroxypropylcellulose) (HPC)): 0 of 3
- survivor count (dose: 25.0 mg/kg/injection, schedule: Q01DX009 (ip), vehicle: Klucel (hydroxypropylcellulose) (HPC)): 0 of 3
- survivor count [4]: 0 of 3
- survivor count [1]: 0 of 3 and 0 of 6
- survivor count [2]: 0 of 6
- survivor count [3]: 0 of 6
